Measured values published in PMC7054785.
No constants are given. Whether binding was seen depends on the method and setting. In cells and extracts the contact can be indirect. Some results given as binding are weak or reduced against the parent protein; the word gives no strength.

The chains behind the UniProt entries cited, without tags or fusion partners.
UniProt P10415: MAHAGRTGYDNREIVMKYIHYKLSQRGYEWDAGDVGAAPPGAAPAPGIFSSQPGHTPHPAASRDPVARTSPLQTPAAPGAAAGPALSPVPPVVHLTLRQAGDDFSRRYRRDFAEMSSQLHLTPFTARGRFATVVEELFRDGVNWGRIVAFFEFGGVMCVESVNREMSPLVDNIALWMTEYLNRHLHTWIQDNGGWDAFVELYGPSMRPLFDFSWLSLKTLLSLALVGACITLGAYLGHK
UniProt O60260: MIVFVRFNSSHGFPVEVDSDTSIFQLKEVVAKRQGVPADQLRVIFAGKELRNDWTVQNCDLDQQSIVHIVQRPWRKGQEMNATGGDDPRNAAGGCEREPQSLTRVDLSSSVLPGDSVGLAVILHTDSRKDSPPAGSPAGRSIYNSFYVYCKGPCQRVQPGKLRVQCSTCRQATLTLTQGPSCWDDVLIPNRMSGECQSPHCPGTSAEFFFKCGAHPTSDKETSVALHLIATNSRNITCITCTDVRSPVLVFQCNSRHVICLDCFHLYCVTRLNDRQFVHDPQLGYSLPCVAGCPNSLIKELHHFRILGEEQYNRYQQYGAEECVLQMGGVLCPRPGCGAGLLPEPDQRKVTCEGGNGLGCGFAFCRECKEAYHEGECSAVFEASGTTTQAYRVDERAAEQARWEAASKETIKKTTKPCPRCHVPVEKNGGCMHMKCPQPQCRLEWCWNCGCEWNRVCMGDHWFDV

Target: Bcl-2 (human (endogenous in A549)) (UniProt P10415)
Experiment: co-IP; immunoprecipitation from A549 cells exposed to LPS; precipitating antibody and conditions not stated

- binding: binds
Substance: Parkin (from UniProt O60260 1-465)
